The results in this text go back to PubChem BioAssay AID493014 (National Center for Advancing Translational Sciences (NCATS), 2011).

This assay can be described thus: qHTS Assay to Find Inhibitors of Chronic Active B-Cell Receptor Signaling. The conditions noted are these: ABC-DLBCL IkBa-CBG/CBR reporter, luminescence ratio (green luciferase fused to IkBa over red control in TMD8 lymphoma cells), 4 h. The gist of the method:
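TMD8 ABC-DLBCL cells carrying doxycycline-inducible green luciferase fused to IkappaBalpha plus unfused red luciferase were exposed to compounds (up to 46 uM) for 4 hrs at 37C. Activity came from the overlap-corrected green/red luminescence ratio.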

Setting [1] is: measured here: CBR red luminescence, cell number.
Where [2] appears, read: measured here: IkBa-CBG green luminescence.

Structures are written as SMILES. Some of the results follow. Further columns of the screen follow, without active or inactive calls. Most of these compounds were active or inconclusive in the main read-out, so they are no random draw. Potencies come from curve fits of mixed quality, noted in brackets.

For the compound `COc1ccc(S(=O)(=O)N(CC(=O)Nc2ccc3c(c2)OCO3)c2ccccc2OC)cc1`, the half-maximal activity concentration (AC50) under setting [1] is 14.1 µM [falling, single point].
Take `Cc1cccnc1-n1c(CCN2C(=O)c3ccccc3C2=O)nc2ccccc2c1=O`: the AC50 under setting [1] is 0.708 µM [rising, full curve, poor fit].
Still for that read-out and setting: then `COc1ccc(OC)c(C2CC(c3ccc(NS(C)(=O)=O)cc3)=NN2C(=O)c2ccccc2)c1` (stereo unspecified), with 0.398 µM [rising, full curve, poor fit].
Same read-out and setting: under `CCCCCCCCSc1n[nH]c(N)n1` stands 29.1 µM [rising, single point].
Consider `Cc1cccc(CSc2ncccc2C(=O)O)c1`, for which, under setting [1], the AC50 was 0.517 µM [rising, partial curve, poor fit].
As for `O=C(CSc1ncnc2c1cnn2-c1ccccc1)NC1CCS(=O)(=O)C1` (stereo unspecified), under setting [1], the AC50 is 11.6 µM [falling, partial curve, poor fit].
With `O=C(CNc1ccc(Br)cc1)c1ccccc1`, under setting [1], the AC50 was 1.41 µM [rising, partial curve].
Consider `COC(=O)c1sccc1-c1ccc(C(=O)Nc2ccccc2)o1`, for which the half-maximal activity concentration (AC50) under setting [1] was 5.62 µM [falling, partial curve, poor fit].
As for `COc1ccc(CCNC(=O)C(=O)NCC2OCCN2S(=O)(=O)c2ccc(C)cc2)cc1OC` (stereo unspecified), the AC50 under setting [1] is 8.91 µM [falling, partial curve].
Same read-out and setting: then `CSc1nc2nc3c(c(=O)n2[nH]1)CN(Cc1ccccc1)CC3`, with 2 µM [falling, partial curve, poor fit].
For the compound `CCN(CC)C(=O)CSc1nnc(-c2cccnc2)n1CCc1ccccc1`, the AC50 under setting [1] was 2.24 µM [falling, partial curve, poor fit].
On the same count and under the same terms, then `Cn1cccc1C(=O)Nc1nc(-c2ccccn2)cs1`, with 17.8 µM [falling, partial curve, poor fit].
As to `COc1ccc(N2C(=O)C3C(C2=O)C(C(=O)c2ccccc2)N2CCCC32)cc1` (stereo unspecified), under setting [1], the concentration at half-maximal activity (AC50) is 20 µM [falling, partial curve].
For `CCCCNS(=O)(=O)c1ccc2nc(SCC(N)=O)[nH]c2c1`, under setting [1], the AC50 is 10 µM [rising, partial curve, poor fit].
Same read-out and setting: under `O=C(ONC1=NCCCCC1)c1ccc([N+](=O)[O-])cc1` stands 12.6 µM [rising, partial curve, poor fit]; under `Cc1ccc2nc(NC(=O)Cn3cc4c(n3)CCCCC4)sc2c1`, 18.4 µM [falling, single point].
Still for that read-out and setting: under `COc1ccc(C(CC(=O)N2CCCC2)C(C)C)cc1` (stereo unspecified) stands 3.16 µM [falling, full curve, poor fit].
As for `COc1ccc(C(=O)Nc2nnc(CC(=O)N/N=C/c3ccc(O)cc3O)s2)cc1`, the concentration at half-maximal activity (AC50) was 3.98 µM [falling, partial curve] under setting [1] and 20 µM [rising, partial curve, poor fit] under setting [2].
Consider `O=c1ccc(Oc2nc(N3CCOCC3)nc(N3CCOCC3)n2)nn1-c1ccccc1`, for which the AC50 under setting [1] was 3.26 µM [falling, partial curve, poor fit].
On to `Cc1ccc(-c2ccc(/C=N/NC(N)=S)o2)cc1`, for which the concentration at half-maximal activity (AC50) under setting [2] was 17.8 µM [falling, partial curve].
For the compound `O=C(Nc1ccccc1F)c1ccn[nH]1`, under setting [1], the AC50 is 5.62 µM [falling, partial curve, poor fit].
Take `Cc1cc(N2CCN(c3ccccc3)CC2)n2nnnc2n1`: the AC50 under setting [1] was 2.91 µM [rising, partial curve, poor fit].
Take `CCNc1nc(NCC)nc(SCCOC(=O)Nc2ccccc2)n1`: the AC50 under setting [1] is 9.2 µM [rising, partial curve, poor fit].
As for `O=C(/C=C/c1cc(Br)ccc1O)c1ccco1`, under setting [1], the half-maximal activity concentration (AC50) is 15.8 µM [falling, partial curve, poor fit].
Consider `CCCc1[nH]nc2c1C(c1ccc(Br)s1)C(C#N)=C(N)O2` (stereo unspecified), for which, under setting [1], the AC50 is 1.64 µM [falling, full curve, poor fit].
Turning to `CCc1ccc(NC(=O)N2CCN(c3ccccc3)CC2)cc1`, the AC50 under setting [1] was 8.91 µM [rising, partial curve, poor fit].
On to `c1cc2cc(-c3c(-c4ccc5c(c4)OCO5)noc3-c3ccsc3)ccc2[nH]1`, for which the AC50 was 35.5 µM [rising, single point] under setting [1] and 10 µM [rising, partial curve, poor fit] under setting [2].
Consider `CCNc1nc(N)nc(-c2cc(Cl)ccc2O)n1`, for which the half-maximal activity concentration (AC50) under setting [1] is 10.3 µM [falling, partial curve].
`COc1ccc(C(=O)CN2CCN(c3ccc(F)cc3)CC2)cc1`: the AC50 under setting [1] is 28.2 µM [falling, partial curve, poor fit].
Consider `CCn1c(=O)cc(OCC(=O)N2CCCC2)c2ccccc21`, for which the concentration at half-maximal activity (AC50) under setting [1] was 4.11 µM [rising, full curve, poor fit].
Take `O=C(O)c1cccc(-n2cc(-c3cccc(C(F)(F)F)c3)cn2)c1`: the concentration at half-maximal activity (AC50) under setting [1] is 10 µM [falling, partial curve].
Same read-out and setting: then `COc1ccc(-c2ccc(C(=O)C3CC3)cc2)cc1`, with 3.16 µM [rising, full curve, poor fit]; and `CCOC(=O)c1c(-c2ccccc2)nnn1-c1nc(OCC)nc(N2CCCCC2)n1`, with 0.00651 µM [rising, full curve, poor fit]; and `CCCn1c(C2CCCN2c2nc(-c3ccc(OC)cc3)cs2)nc2ccccc21` (stereo unspecified), with 12.6 µM [falling, single point].
With `CC(C)(C)C1CCC(=NNc2ncc(C(F)(F)F)cc2Cl)CC1` (stereo unspecified), the AC50 under setting [1] was 0.058 µM [rising, full curve, poor fit].
Consider `C/C(=N/NC(=O)c1ccc(Cl)s1)c1cccnc1`, for which the concentration at half-maximal activity (AC50) under setting [1] was 7.94 µM [falling, partial curve, poor fit].
`CN(C)Cc1ccc(F)cc1Sc1ccc(Cl)cc1Cl`: the AC50 under setting [1] is 29.1 µM [rising, single point].
For the compound `CC(=O)c1cccc(NC(=O)COC(=O)C2CCCN2C(=O)c2cccs2)c1` (stereo unspecified), the AC50 under setting [1] was 23.1 µM [rising, partial curve, poor fit].
Consider `CCCCNC(=O)Nc1ccccc1C(=O)NCc1ccco1`, for which, under setting [1], the AC50 is 0.282 µM [rising, full curve, poor fit].
As to `O=C(COC(=O)c1cccnc1Nc1cccc(C(F)(F)F)c1)NC1CCS(=O)(=O)C1` (stereo unspecified), the AC50 under setting [1] was 8.2 µM [falling, single point].
On the same count and under the same terms, under `Cc1cccc(C(=O)NN2S(=O)(=O)c3ccccc3S2(=O)=O)c1` stands 10 µM [falling, partial curve].
On to `Nc1cc(Cl)ccc1Oc1ccc(Cl)cc1`, for which the AC50 under setting [1] was 35.5 µM [rising, single point].
In the case of `COc1cccc(NC(=O)C2CCCN(S(=O)(=O)c3cccc4nsnc34)C2)c1` (stereo unspecified), the concentration at half-maximal activity (AC50) under setting [1] is 0.731 µM [falling, full curve, poor fit].
For the compound `COc1cc(-c2cc(C(=O)Nc3ccc(N4CCOCC4)cc3)c3ccccc3n2)cc(OC)c1OC`, the AC50 under setting [1] was 3.55 µM [rising, partial curve, poor fit].
For the compound `Nc1c2c(nc3sc4c(c13)CCCCC4)CCCCC2`, the concentration at half-maximal activity (AC50) under setting [1] was 0.58 µM [rising, full curve, poor fit].
As for `CN(Cc1ccccc1)C(=O)c1nc[nH]c1C(=O)N1CCN(c2ccccc2)CC1`, under setting [1], the AC50 was 1.03 µM [rising, full curve].
On to `Cc1ccc(C)c(S(=O)(=O)N(C)Cc2cccs2)c1`, for which, under setting [1], the AC50 was 6.51 µM [rising, single point].
In the case of `COc1ccc(-c2nnc(-c3ccccc3)o2)cc1OC`, the AC50 under setting [1] was 17.8 µM [falling, single point].
As for `CC(=O)Nc1cccc(-c2csc(NCc3ccccc3)n2)c1`, the concentration at half-maximal activity (AC50) under setting [1] was 0.1 µM [rising, full curve, poor fit].
In the case of `CCNc1nc(NCC)nc(N(C#N)CCOc2ccccc2)n1`, under setting [1], the AC50 is 0.631 µM [rising, full curve, poor fit].
As for `COc1cc(/C=C/C(=O)c2ccc(C)cc2)ccc1OCC#N`, under setting [1], the AC50 is 14.6 µM [falling, partial curve, poor fit].
In the case of `O=C(CSc1nncc2ccccc12)N1CCCCC1`, the AC50 under setting [1] is 11.2 µM [falling, partial curve, poor fit].
On to `COc1cccc(C(=O)/C=C/Nc2ccc(S(=O)(=O)Nc3ccc(C(C)=O)cc3)cc2)c1`, for which the AC50 under setting [1] was 29.1 µM [falling, single point].
For `COc1ccccc1N1CCN(c2ncnc3c2c(-c2ccccc2)cn3-c2cccc(C)c2)CC1`, the AC50 under setting [1] was 0.282 µM [rising, partial curve, poor fit].
On the same count and under the same terms, under `COc1ccc(C(=O)Nc2ccc(-c3n[nH]c(=S)o3)cc2)cc1OC` stands 3.16 µM [rising, single point].
`O=C(NNC(=O)c1ccccc1O)c1ccc(S(=O)(=O)Nc2ccccc2F)cc1`: the concentration at half-maximal activity (AC50) under setting [1] is 29.1 µM [falling, single point].
Regarding `COCC(=O)Nc1ccc(N2CCOCC2)c(S(=O)(=O)Nc2ccccc2OC)c1`, the AC50 under setting [1] was 2.59 µM [rising, single point].
For the compound `Cc1ccc(N2CCN(S(=O)(=O)c3c(C)nc4scc(C)n4c3=O)CC2)c(C)c1`, the concentration at half-maximal activity (AC50) under setting [1] is 17.8 µM [rising, single point].
Take `O=C(O)C1C2C=CC(C2)C1C(=O)NCCc1cccc(Cl)c1` (stereo unspecified): the AC50 under setting [1] is 8.2 µM [falling, partial curve, poor fit].
For `COc1ccc(C(=O)C[n+]2cc(-c3ccc(OC)cc3)n3c2CCCC3)cc1`, under setting [1], the AC50 is 35.5 µM [falling, single point].
For `CC(C)c1nn2c(N)c(/C=C3\C=Nc4ccccc43)c(=O)nc2s1`, the AC50 under setting [1] is 0.891 µM [rising, full curve, poor fit].
`CCCCOC(=O)n1c(SCC(=O)N(C)C)nc2ccccc21`: the AC50 under setting [1] was 0.224 µM [falling, full curve, poor fit].
On to `Cc1ccc(OCc2nc(-c3ccccn3)n[nH]2)cc1`, for which the AC50 under setting [1] is 20.6 µM [falling, single point].
For the compound `Cc1ccccc1OCC(=O)Nc1ccc(C)c(S(=O)(=O)N2CCCCCC2)c1`, under setting [1], the half-maximal activity concentration (AC50) is 20.6 µM [falling, single point].
